{"source": "PubChem BioAssay AID686937 (Drosophila RNAi Screening Center, 2013)", "purpose": "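Knock-downs that reduce output of a secreted reporter enzyme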 (primary screen)", "cells": "Drosophila S2 cells expressing secreted horseradish peroxidase", "knock-down reagent": "long dsRNA against Drosophila genes", "time to read-out": "about 5.5 days (5 days dsRNA, then 12 h reporter induction)", "treatment": "reporter expression induced after 5 days of dsRNA, read 12 h later; inducer not stated", "read-out": "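Chemiluminescent measurement of peroxidase in the medium 12 h after reporter induction, following 5 days of dsRNA, given as a z-score per plate; higher means more secretion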", "scale": "z-score: higher = more reporter secreted into medium", "note": "The deposit covers about 23,000 reagents; below is an unselected part of those that have a named target and a result. 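Reduced-secretion tags in replicate 1 do not always agree with the z-scores; no criterion for assigning the tags was given.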 A plus sign joins genes that one reagent is predicted to hit. Not all columns of the deposit are shown. Not stated in the record: the amount of reagent."}
{"Target gene":"nsl1 (GeneID 41911)","DRSC id":"DRSC15625","z-score, replicate 1":-2.88,"phenotype, replicate 1":"reduced secretion"}
{"Target gene":"CG42232 (GeneID 7354465)","DRSC id":"DRSC15018","z-score, replicate 1":0.04}
{"Target gene":"CG42232 (GeneID 7354465)","DRSC id":"DRSC15019","z-score, replicate 1":0.07}
{"Target gene":"Tti1 (GeneID 41189)","DRSC id":"DRSC15163","z-score, replicate 1":-0.06}
{"Target gene":"Trx2 (GeneID 34281)","DRSC id":"DRSC03622","z-score, replicate 1":0.31}
{"Target gene":"Gr10b (GeneID 32085)","DRSC id":"DRSC19477","z-score, replicate 1":0.28}
{"Target gene":"Gtpx (GeneID 38413)","DRSC id":"DRSC08221","z-score, replicate 1":0.53}
{"Target gene":"Gtpx (GeneID 38413)","DRSC id":"DRSC22117","z-score, replicate 1":-1.01}
{"Target gene":"CG7110 (GeneID 34757)","DRSC id":"DRSC03011","z-score, replicate 1":0.23}
{"Target gene":"CG7110 (GeneID 34757)","DRSC id":"DRSC03012","z-score, replicate 1":0.21}
{"Target gene":"CG15459 (GeneID 33036)","DRSC id":"DRSC20530","z-score, replicate 1":0.49}
{"Target gene":"CG15459 (GeneID 33036)","DRSC id":"DRSC21383","z-score, replicate 1":0.5}
{"Target gene":"Abp1 (GeneID 39520)","DRSC id":"DRSC09693","z-score, replicate 1":0.39}
{"Target gene":"Pi4KIIIalpha (GeneID 31247)","DRSC id":"DRSC18655","z-score, replicate 1":0.17}
{"Target gene":"CG33791 + CG18170","DRSC id":"DRSC08523","z-score, replicate 1":0.45}
{"Target gene":"CG33791 + CG18170","DRSC id":"DRSC08601","z-score, replicate 1":0.34}

Only “z-score, replicate 1”, for 2 of the entries above:
CG42232 (GeneID 7354465) [DRSC15019]: 0.07
Tti1 (GeneID 41189) [DRSC15163]: -0.06
